Laboratory results as given in PubChem BioAssay AID743255 (National Center for Advancing Translational Sciences (NCATS), 2014).
In all, about 390,000 compounds went through this assay and about 910 (0.23%) were called active. The shares of active, inactive and inconclusive entries below differ from those in the screen. The call rests on the fitted dose curve; in most records, active means well fitted inhibition curve with a large enough effect; inconclusive means small, poorly fitted or top-dose-only effect; inactive means no such curve, though single readings can be large or run the other way. Where the call is inconclusive, the potency comes from a doubtful curve fit.

Sequences of proteins named here, by UniProt entry; tags and fusion partners are left off. A change or cut given only in a name is not applied to a line headed by its entry.
UniProt O94782: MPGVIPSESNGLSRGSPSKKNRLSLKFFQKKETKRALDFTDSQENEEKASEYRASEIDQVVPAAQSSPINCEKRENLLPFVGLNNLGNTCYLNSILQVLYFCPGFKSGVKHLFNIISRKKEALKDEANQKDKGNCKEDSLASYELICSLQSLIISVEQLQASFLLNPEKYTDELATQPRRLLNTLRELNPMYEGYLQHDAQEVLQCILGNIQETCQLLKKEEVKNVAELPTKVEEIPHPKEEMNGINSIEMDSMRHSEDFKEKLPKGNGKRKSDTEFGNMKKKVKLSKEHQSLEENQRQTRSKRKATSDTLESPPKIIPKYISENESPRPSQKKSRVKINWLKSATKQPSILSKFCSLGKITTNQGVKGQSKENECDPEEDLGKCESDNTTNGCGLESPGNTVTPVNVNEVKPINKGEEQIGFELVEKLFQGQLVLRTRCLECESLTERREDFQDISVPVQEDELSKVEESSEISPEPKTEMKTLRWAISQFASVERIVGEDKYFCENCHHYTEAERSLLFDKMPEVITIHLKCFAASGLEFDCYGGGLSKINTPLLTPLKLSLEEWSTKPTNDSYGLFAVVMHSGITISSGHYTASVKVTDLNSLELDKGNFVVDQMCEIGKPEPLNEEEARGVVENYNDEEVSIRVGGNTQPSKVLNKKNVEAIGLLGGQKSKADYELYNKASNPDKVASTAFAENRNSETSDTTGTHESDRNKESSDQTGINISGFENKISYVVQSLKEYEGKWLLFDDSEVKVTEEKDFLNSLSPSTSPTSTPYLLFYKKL

target: Ubiquitin carboxyl-terminal hydrolase 1 (Homo sapiens) (UniProt O94782); test: Inhibitors of USP1/UAF1: Primary Screen; details: recombinant USP1/UAF1, Ub-Rhodamine cleavage fluorescence; activity change, negative = inhibition: at 57.1 µM (top of the series); further: nearly all actives have a fitted effect of over 60% in size
Outline: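 USP1/UAF1 complex at 1 nM was preincubated with compound for 15 min at room temperature, then Ub-Rho substrate (150nM final) was added. Fluorescence (480/540 nm) was read kinetically, 6 reads every 60 seconds.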
On the % scale 0 is the no-effect control and ±100 the full control effect; potency means the concentration at half of the fitted maximal effect.

Compound | activity change, negative = inhibition | Potency
CCN1CCN(CC(O)COCC2COc3ccccc3O2)CC1 (stereo not drawn) | inactive: -10.3% | –
CC(C)Cn1c(=O)c2sccc2n2c(CCCC(=O)NCCc3ccc(Cl)cc3)nnc12 | inactive: 2.26% | –
CC(=O)Oc1ccc(-c2ccc(C(=O)Nc3cccc(S(=O)(=O)N4CCOCC4)c3)cc2)cc1 | – | inconclusive: 56.2 µM [inhibitor, partial curve, poor fit]
CC1CCN(S(=O)(=O)c2nnc(NC(=O)c3ccc(C(C)C)cc3)s2)CC1 | inactive: -7.85% | –
O=C(CCCN1C(=O)c2cccnc2Oc2ccc(Cl)cc21)NCc1ccccc1F | – | inconclusive: 39.8 µM [inhibitor, partial curve]
O=c1c2cc(N3CCOCC3)ccc2[nH]c(=S)n1CCCN1CCCCC1 | inactive: -22.4% | –
CCN(CC)CCOC(=O)c1ccc(NC(=O)c2nn(C)c3c2COc2ccccc2-3)cc1 | – | inconclusive: 28.2 µM [inhibitor, single point]
O=C(c1cc2cc(Cl)ccc2o1)N1CCCC1 | – | inconclusive: 5.62 µM [inhibitor, single point]
CCOC(=O)c1cccc(NC(=O)c2cc3c(=O)n(C)c4ccccc4c3n2C)c1 | – | inconclusive: 8.91 µM [inhibitor, full curve, poor fit]
Cc1cc(=O)n2[nH]c(-c3ccsc3-n3c(C)ccc3C)cc2n1 | – | inconclusive: 39.8 µM [inhibitor, partial curve, poor fit]
CCC(=O)C1=C(c2ccc(Cl)cc2)N(C(=O)CC)n2c(C)nnc2S1 | – | inconclusive: 5.01 µM [inhibitor, partial curve]
C[C@H](CO)N1C[C@H](C)[C@@H](CN(C)S(=O)(=O)c2ccccc2)Oc2c(NS(=O)(=O)c3ccccc3)cccc2C1=O | – | inconclusive: 56.2 µM [inhibitor, partial curve, poor fit]
O=C(CSc1oc(-c2ccco2)nc1S(=O)(=O)c1ccc(Br)cc1)c1ccccc1 | inactive: -8.42% | –
O=c1c2c3nc4ccccc4nc3n(/N=C/c3ccco3)c2ncn1CCC1=CCCCC1 | – | inconclusive: 1.78 µM [inhibitor, full curve, poor fit]
CCOc1cc(/C=C2\N=C(C)OC2=O)cc(Cl)c1OCC(=O)OC | inactive: -1.29% | –
Cc1ccc(NC(=O)C2CCCN2S(=O)(=O)c2cccc3nsnc23)c(C)c1 (stereo not drawn) | – | inconclusive: 0.251 µM [inhibitor, full curve, poor fit]
Fc1ccc2c(c1)C(c1ccc(N3CCOCC3)cc1)=NNC(c1cccs1)=N2 | inactive: -33.9% | –
Cc1ccsc1CN(C(=O)c1oc2ccc(F)cc2c1C)C1CCS(=O)(=O)C1 (stereo not drawn) | – | inconclusive: 44.7 µM [inhibitor, partial curve, poor fit]
COc1ccc(CN2CN(C3CCCC3)CSC2=S)cc1 | – | inconclusive: 0.891 µM [inhibitor, full curve]
CCOc1ccccc1NC(=O)N(Cc1ccc(F)cc1)C1CCN(CC)CC1 | – | inconclusive: 100 µM [inhibitor, partial curve, poor fit]
COc1ccc(N2CCN(C(=O)c3ccc(Cl)c(S(=O)(=O)N4CCCC4)c3)CC2)cc1 | inactive: -5.4% | –
Nc1ccc2c3c(cccc13)C(=O)N(c1ccccc1)C2=O | – | inconclusive: 31.6 µM [inhibitor, partial curve, poor fit]

Some of these compounds in order of number of heavy atoms, low to high:
Compound | activity change, negative = inhibition | Potency
Cc1ccc(NC(=O)C2CCCN2S(=O)(=O)c2cccc3nsnc23)c(C)c1 (stereo not drawn) | – | inconclusive: 0.251 µM [inhibitor, full curve, poor fit]
O=C(CCCN1C(=O)c2cccnc2Oc2ccc(Cl)cc21)NCc1ccccc1F | – | inconclusive: 39.8 µM [inhibitor, partial curve]
CC(=O)Oc1ccc(-c2ccc(C(=O)Nc3cccc(S(=O)(=O)N4CCOCC4)c3)cc2)cc1 | – | inconclusive: 56.2 µM [inhibitor, partial curve, poor fit]

Remaining list, next part:

Compound | activity change, negative = inhibition | Potency
Cc1cccc2sc(NNC(=O)c3cc(=O)c4ccccc4o3)nc12 | – | inconclusive: 0.891 µM [inhibitor, full curve]
O=C(CSc1nc2ccsc2c(=O)n1CC1CCC(C(=O)O)CC1)c1ccc(Cl)cc1 (stereo not drawn) | inactive: -4.69% | –
CC(C)c1ccc(NC(=O)c2ccc3c(c2)CCN3S(C)(=O)=O)cc1 | – | inconclusive: 0.398 µM [inhibitor, full curve, poor fit]
COc1cc(/C=C2\SC(=Nc3ccccc3)NC2=O)cc(Cl)c1O | – | inconclusive: 28.2 µM [inhibitor, partial curve]
O=c1c2ccccc2nc(/C=C/c2ccccc2)n1CCCO | inactive: -27% | –
CCOc1ccc2nc(NC(=O)CSc3nc(-c4ccccc4)c(C#N)c(=O)[nH]3)sc2c1 | – | inconclusive: 14.1 µM [inhibitor, partial curve]
N#Cc1ccc(C(=O)NCc2ccc3c(c2)CCN3C(=O)c2ccc(F)cc2)cc1 | inactive: -16.2% | –
Cc1ccc(NC(=O)NC2CCCCCCC2)cc1 | inactive: -19% | –
Cc1ccccc1Cn1c2ccccc2c2cnn(CC(=O)NC(C)CCc3ccccc3)c(=O)c21 (stereo not drawn) | inactive: 5.75% | –
CC(C(=O)O)n1c2ccccc2c2cn[nH]c(=O)c21 (stereo not drawn) | – | inconclusive: 20 µM [inhibitor, partial curve]
CCOC(=O)N1CCc2c(sc3ncn(C)c(=O)c23)C1 | – | inconclusive: 2.51 µM [inhibitor, full curve, poor fit]
COc1cc2c(C#N)c(N3CCc4ccccc4C3)nc(N)c2c(N)n1 | inactive: -12% | –
CCC(C)[C@H](N)c1cn([C@@H](Cc2cc3ccccc3[nH]2)C(=O)N2CCNCC2)nn1 (stereo partly drawn) | – | inconclusive: 0.251 µM [inhibitor, full curve, poor fit]
CCOc1ccc(-n2c(SCC(=O)N3CCC(C)CC3)nc3c([nH]c4ccccc43)c2=O)cc1 | inactive: -10.8% | –
O=S(=O)(c1ccccc1)N(F)S(=O)(=O)c1ccccc1 | inactive: -10.2% | –
CCN1C(=O)c2ccccc2Sc2ccc(C(=O)NC(C)C)cc21 | – | inconclusive: 8.91 µM [inhibitor, partial curve]
Cc1ccc(CNC(=O)c2cccn2-c2nnc(N3CCCC3)s2)cc1 | – | inconclusive: 50.1 µM [inhibitor, partial curve, poor fit]
COc1ccc(OC)c(C(=O)NC(CC(N)=O)c2ccc(N3CCCCCC3)c([N+](=O)[O-])c2)c1 (stereo not drawn) | – | inconclusive: 56.2 µM [inhibitor, partial curve, poor fit]
COc1ccc(OC)c(N(CC(=O)NCCSCc2ccc(C)cc2)S(C)(=O)=O)c1 | inactive: 3.52% | –
CC(=O)c1cnc(SCC(=O)O)nc1C | – | inconclusive: 28.2 µM [inhibitor, partial curve]
CCOc1cc2[nH]c(=O)n(CCCCC(=O)N3CCN(c4ccc(OC)cc4)CC3)c(=O)c2cc1OCC | – | inconclusive: 3.98 µM [inhibitor, single point]
